In patent publication US20150040894A1 (VIRGINIA COMMONWEALTH UNIVERSITY, priority 2010, published 2015):
At least one structure is not confirmed: it was looked up by name or label, or the drawing left a doubt.

Assays:
[1] = system: apical and basolateral IL-8 secretion from ALI-conditioned NHBE cells; experiment: IL-8 secretion from NHBE cells cultured under air-liquid interface (ALI) condition; format: cell-based, human; settings: DEX 0.1 μg/ml, P<0.05 for each
Procedure: For NHBE cell differentiation, cells were plated at 2.0×10^5 cells/cm^2 onto polycarbonate inserts of 6.5-mm diameter, 0.4-μm pore size and 10-μm thickness (Costar Transwell Clear, Cambridge, Mass., USA) coated with type 1 rat-tail collagen, and cultured with serum-free DMEM/F12 medium containing ITS-A (1.0%; Invitrogen Co., Carlsbad, Calif.), epidermal growth factor (EGF) (recombinant human EGF, 0.5 ng/ml; Invitrogen Co.), triiodothyronine (10 ng/ml; […] Sigma-Aldrich), bovine serum albumin (2.0 μg/ml; Sigma-Aldrich) and bovine pituitary extract (30 μg/ml; Invitrogen Co.). After achieving confluence, the apical medium was removed, and cells were cultured with an air-liquid-interface (ALI) method. The culture medium was changed every 48 h, and cells were maintained at 37° C. in a 5% CO2, for 10-14 days. Culture supernatants were collected and centrifuged for 5 min at 200×g and stored at −20° C. until assayed. IL-8 was measured by ELISA (Beckman Coulter, Inc., Brea, Calif.) according to the manufacturer's instructions. Concentrations in each sample were obtained by interpolation from standard curves, and calculated as the mean of the results at the sample dilution. […] NHBE cells were stimulated with LPS from the apical (AP-LPS) or basolateral side (BL-LPS) for 24 h, and IL-8 secretion levels in both chambers were measured. […]

[2] = system: IL-8 mRNA expression in NHBE cells; experiment: IL-8 mRNA expression by real-time quantitative PCR; format: cell-based, human; settings: DEX 0.1 μg/ml; LPS 10 μg/ml; 4 h; P<0.01
Procedure: For the relative quantification of IL-8 mRNA expression, the expression of glyceraldehyde-3-phosphate dehydrogenase (GAPDH) was served as an internal control. EvaGreen was used as a DNA intercalator dye to monitor amplified DNA quantification, and real-time quantitative PCR curves were analyzed by the CFX Manager™ software (Bio-Rad) in order to obtain threshold cycle (Ct) values for each sample. Quantification was based on a standard curve. Appropriate IL-8 and GADPH forward and reverse primers were used.

C[C@@H]1C[C@H]2[C@@H]3CCC4=CC(=O)C=C[C@]4(C)[C@@]3(F)[C@@H](O)C[C@]2(C)[C@@]1(O)C(=O)CO [DEX, dexamethasone] was tested, and the “AP-LPS- or BL-LPS-induced increase in IL-8” value ([1]; LPS 10 μg/ml 24 h) was “significantly inhibited”, the “basal IL-8 level, apical and basolateral sides” value [1] was “suppressed” and the “LPS-induced IL-8 mRNA over expression” value [2] was “inhibited”.
